At least one structure is not confirmed: it was looked up by name or label, or the drawing left a doubt.
Tests used:
Assay type in all cases: in vivo
[1] = test system: mutant C. elegans strain with a constitutively pumping pharynx; test: Pharynx pumping assay (calcein-AM fluorescence), screen for inhibitors; design: key to Positives after 1 hour incubation: +: Positives after 1 hour incubation; details: for activity on the pharynx pumping rate found with the variation of the protocol: compounds and worms incubated approximately 1 hour, then calcein-AM, one further hour
From the text: Depending on the specific assay which it is desired to perform, different C. elegans strains can be used. Screens to select for chemical substances inhibiting the pumping rate of the C. elegans pharynx are generally performed with mutant C. elegans strains which have a constitutively pumping pharynx. Wild-type worms can also be used in this screen, but the mutants worms are preferred. […] The selected mutant C. elegans with the constitutively pumping pharynx pumps medium into the gut at a constant rate and reduction/rescue of this phenotype can easily be scored, which facilitates the detection and selection of chemical substances.
(§1) The pumping rate of the pharynx is measured indirectly by adding a marker molecule precursor such as calcein-AM to the medium and measuring the formation of marker dye in the C. elegans gut. Calcein-AM is cleaved by esterases present in the C. elegans gut to release calcein, which is a fluorescent molecule. […] Therefore by measuring the accumulation of calcein in the nematode gut, detectable by fluorescence, it is possible to determine the pumping rate of the pharynx.
To perform the pharynx pumping screen with calcein-AM, a concentration of between 1 and 100 μM calcein-AM is added into the medium. Preferably 5 to 10 μM calcein-AM is used. Fluorescence is measured using a multi-well plate reader (Victor2, Wallac Oy, Finland) with following settings: Ex/Em=485/530. […]
The drugs were randomly distributed over the wells of two 96-well multi-well plates. The pumping rate of the C. elegans pharynx was measured using calcein-AM as described in Example 2.
In a first assay, the substrate calcein-AM was added to the medium at the same time as the worms and the compounds. The fluorescence was measured after approximately one hour.
In a variation of this protocol, compounds and worms are added to the medium first and incubated for approximately 1 hour. […] The plates where then further incubated for one hour prior to fluorescence measurement in the microtiter plate reader.

[2] = test system: C. elegans wild-type strain N2; test: Pharynx pumping assay (calcein-AM fluorescence), screen for enhancers; design: key: +: Positives after 1 hour incubation; details: enhancers of pharynx pumping rate; compounds and worms incubated approximately 1 hour before calcein-AM was added
[3] = test system: C. elegans pharynx; test: Pharynx pumping assay (calcein-AM), strain not specified: dilution series, insecticides, Tocris library; details: concentration range from less than 1 μM up to 100 μM
Method: as §1
To perform the pharynx pumping screen with calcein-AM, a concentration of between 1 and 100 μM calcein-AM is added into the medium. Preferably 5 to 10 μM calcein-AM is used. Fluorescence is measured using a multi-well plate reader (Victor2, Wallac Oy, Finland) with following settings: Ex/Em=485/530.
To determine the sensitivity of the pharynx pumping assay, dilution series were made for some chemical substances. These include the chemicals clomipramine, tamoxifen, BP554, pimazide and thapsigargin. A concentration range was made from less than 1 μM up to 100 μM, and the pumping assay was repeated as described in previous examples.

Compound: O=C1NC(=O)C(c2ccccc2)(c2ccccc2)N1 [Diphenyl-hydantoin, diphenylhydantoin]
- activity on the pharynx pumping rate found with the variation of the protocol [1]: detection

Compound: CNCCC=C1c2ccccc2COc2ccccc21 [Nordoxepin]
- Positives after 1 hour incubation [2]: +

Compound: CNC(=O)Oc1ccc2c(c1)[C@]1(C)CCN(C)[C@@H]1N2C [Physostigmine]
- activity on the pharynx pumping rate found with the variation of the protocol [1]: detection

Compound: O=c1[nH]c2ccccc2n1C1CCN(CCCC(c2ccc(F)cc2)c2ccc(F)cc2)CC1 [Pimozide]
- effect on pharynx pumping rate, dose-response curve [3]: inhibitors

Compound: N=C(N)S/C=C\C(=O)O [ZAPA]
- Positives after 1 hour incubation ([1]; inhibitors of pharynx pumping rate, compounds and worms incubated approximately 1 hour before calcein-AM was added): +
